PubChem BioAssay AID1904 | GNF, 2009

Purpose: 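Novel clock parts and modifiers of the cell-autonomous circadian rhythm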 (follow-up of hits)
Cell system: human U2OS osteosarcoma cells stably expressing a destabilised luciferase driven by the Bmal1 promoter
Reagent: siRNA pair against human genes, 12.5 nM (two siRNAs, 0.5 pmol each, per well)
Timing: about 3 days after transfection, then luminescence recorded for about 4 days
Detection: 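Period and amplitude fitted from detrended luminescence traces taken every 2 hours; duplicate wells averaged, compared with the screen mean and grouped into phenotype classes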
Rule for the call: 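Scored active if separate single siRNAs repeated the clock phenotype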
Meaning of the calls: active = confirmed by single siRNAs; inactive = not confirmed
The reagents shown are a selection, not the whole library. 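Lists only primary-screen hits; phenotype classes come from fitted traces, and the underlying luminescence values are not given.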 Reagents against one gene are numbered here.

| gene | reagent no. | clock phenotype class | confirmed with single siRNAs | call |
| --- | --- | --- | --- | --- |
| OPN1LW | 1 | longer clock period; seen with two independent siRNA pairs for the gene | phenotype reproduced by individual siRNAs | active |
| OPN1LW | 2 | longer clock period; seen with two independent siRNA pairs for the gene | phenotype reproduced by individual siRNAs | active |
| GPR89 | 1 | shorter clock period; seen with one siRNA pair in duplicate wells | phenotype reproduced by individual siRNAs | active |
| GPR89 | 2 | shorter clock period; seen with one siRNA pair in duplicate wells | phenotype reproduced by individual siRNAs | active |
| Cry2 | 1 | longer clock period; seen with two independent siRNA pairs for the gene | phenotype reproduced by individual siRNAs | active |
| Cry2 | 2 | longer clock period; seen with two independent siRNA pairs for the gene | phenotype reproduced by individual siRNAs | active |
| Cry2 | 3 | longer clock period; seen with two independent siRNA pairs for the gene | phenotype reproduced by individual siRNAs | active |
| Cry2 | 4 | longer clock period; seen with two independent siRNA pairs for the gene | phenotype reproduced by individual siRNAs | active |
| FLJ30469 | 1 | shorter clock period; seen with one siRNA pair in duplicate wells | phenotype not reproduced by individual siRNAs | inconclusive |
| FLJ30469 | 2 | shorter clock period; seen with one siRNA pair in duplicate wells | phenotype not reproduced by individual siRNAs | inconclusive |
| EPAS1 | 1 | longer clock period; seen with two independent siRNA pairs for the gene | phenotype not reproduced by individual siRNAs | inconclusive |
| EPAS1 | 2 | longer clock period; seen with two independent siRNA pairs for the gene | phenotype not reproduced by individual siRNAs | inconclusive |
| WDR9 | 1 | higher rhythm amplitude; seen with one siRNA pair in duplicate wells | not retested with individual siRNAs | – |
| PPP1R2P9 | 1 | shorter clock period; seen with two independent siRNA pairs for the gene | not retested with individual siRNAs | – |
| PPP1R2P9 | 2 | shorter clock period; seen with two independent siRNA pairs for the gene | not retested with individual siRNAs | – |
| FUT5 | 1 | longer clock period; seen with two independent siRNA pairs for the gene | phenotype not reproduced by individual siRNAs | inconclusive |
| FUT5 | 2 | longer clock period; seen with two independent siRNA pairs for the gene | phenotype not reproduced by individual siRNAs | inconclusive |
| WNT2 | 1 | longer clock period; seen with two independent siRNA pairs for the gene | phenotype reproduced by individual siRNAs | active |
| WNT2 | 2 | longer clock period; seen with two independent siRNA pairs for the gene | phenotype reproduced by individual siRNAs | active |
| SLC3A1 | 1 | longer clock period; seen with two independent siRNA pairs for the gene | phenotype reproduced by individual siRNAs | active |
| SLC3A1 | 2 | longer clock period; seen with two independent siRNA pairs for the gene | phenotype reproduced by individual siRNAs | active |
| MGC15763 | 1 | longer clock period; seen with two independent siRNA pairs for the gene | not retested with individual siRNAs | – |
| MGC15763 | 2 | longer clock period; seen with two independent siRNA pairs for the gene | not retested with individual siRNAs | – |
| FLJ20605 | 1 | shorter clock period; seen with two independent siRNA pairs for the gene | phenotype reproduced by individual siRNAs | active |
| FLJ20605 | 2 | shorter clock period; seen with two independent siRNA pairs for the gene | phenotype reproduced by individual siRNAs | active |
| FOXL1 | 1 | higher rhythm amplitude; seen with one siRNA pair in duplicate wells | phenotype reproduced by individual siRNAs | active |
| FOXL1 | 2 | higher rhythm amplitude; seen with one siRNA pair in duplicate wells | phenotype reproduced by individual siRNAs | active |
| RLN3R2 | 1 | longer clock period; seen with two independent siRNA pairs for the gene | phenotype reproduced by individual siRNAs | active |
| RLN3R2 | 2 | longer clock period; seen with two independent siRNA pairs for the gene | phenotype reproduced by individual siRNAs | active |
| PIK3R5 | 1 | longer clock period; seen with two independent siRNA pairs for the gene | phenotype reproduced by individual siRNAs | active |
| PIK3R5 | 2 | longer clock period; seen with two independent siRNA pairs for the gene | phenotype reproduced by individual siRNAs | active |
| BTNL8 | 1 | longer clock period; seen with two independent siRNA pairs for the gene | not retested with individual siRNAs | – |
| BTNL8 | 2 | longer clock period; seen with two independent siRNA pairs for the gene | not retested with individual siRNAs | – |
| FOXF1 | 1 | shorter clock period; seen with one siRNA pair in duplicate wells | phenotype not reproduced by individual siRNAs | inconclusive |
| FOXF1 | 2 | shorter clock period; seen with one siRNA pair in duplicate wells | phenotype not reproduced by individual siRNAs | inconclusive |
| IF | 1 | longer clock period; seen with two independent siRNA pairs for the gene | phenotype reproduced by individual siRNAs | active |
| IF | 2 | longer clock period; seen with two independent siRNA pairs for the gene | phenotype reproduced by individual siRNAs | active |
| USP1 | 1 | longer clock period; seen with two independent siRNA pairs for the gene | phenotype reproduced by individual siRNAs | active |
| USP1 | 2 | longer clock period; seen with two independent siRNA pairs for the gene | phenotype reproduced by individual siRNAs | active |
| RPS4X | 1 | longer clock period; seen with two independent siRNA pairs for the gene | not retested with individual siRNAs | – |
| RPS4X | 2 | longer clock period; seen with two independent siRNA pairs for the gene | not retested with individual siRNAs | – |
| HNRPR | 1 | shorter clock period; seen with two independent siRNA pairs for the gene | phenotype reproduced by individual siRNAs | active |
| HNRPR | 2 | shorter clock period; seen with two independent siRNA pairs for the gene | phenotype reproduced by individual siRNAs | active |
| NOB1P | 1 | longer clock period; seen with two independent siRNA pairs for the gene | phenotype reproduced by individual siRNAs | active |
| NOB1P | 2 | longer clock period; seen with two independent siRNA pairs for the gene | phenotype reproduced by individual siRNAs | active |
| MYOC | 1 | longer clock period; seen with two independent siRNA pairs for the gene | phenotype reproduced by individual siRNAs | active |
| MYOC | 2 | longer clock period; seen with two independent siRNA pairs for the gene | phenotype reproduced by individual siRNAs | active |
| RRH | 1 | longer clock period; seen with two independent siRNA pairs for the gene | phenotype reproduced by individual siRNAs | active |
| RRH | 2 | longer clock period; seen with two independent siRNA pairs for the gene | phenotype reproduced by individual siRNAs | active |
| RANBP6 | 1 | shorter clock period; seen with one siRNA pair in duplicate wells | phenotype reproduced by individual siRNAs | active |
| RANBP6 | 2 | shorter clock period; seen with one siRNA pair in duplicate wells | phenotype reproduced by individual siRNAs | active |
| HAS3 | 1 | longer clock period; seen with two independent siRNA pairs for the gene | phenotype not reproduced by individual siRNAs | inconclusive |
| PDGFC | 1 | longer clock period; seen with two independent siRNA pairs for the gene | phenotype reproduced by individual siRNAs | active |
| PDGFC | 2 | longer clock period; seen with two independent siRNA pairs for the gene | phenotype reproduced by individual siRNAs | active |
| CES1 | 1 | shorter clock period; seen with one siRNA pair in duplicate wells | phenotype not reproduced by individual siRNAs | inconclusive |
| CES1 | 2 | shorter clock period; seen with one siRNA pair in duplicate wells | phenotype not reproduced by individual siRNAs | inconclusive |
| HOMER3 | 1 | longer clock period; seen with two independent siRNA pairs for the gene | phenotype reproduced by individual siRNAs | active |
| HOMER3 | 2 | longer clock period; seen with two independent siRNA pairs for the gene | phenotype reproduced by individual siRNAs | active |

Entries above whose target name starts with G or g (2):
| gene | reagent no. | clock phenotype class | confirmed with single siRNAs | call |
| --- | --- | --- | --- | --- |
| GPR89 | 1 | shorter clock period; seen with one siRNA pair in duplicate wells | phenotype reproduced by individual siRNAs | active |
| GPR89 | 2 | shorter clock period; seen with one siRNA pair in duplicate wells | phenotype reproduced by individual siRNAs | active |
